This note sets out measurements from US20180044406A1 (UNIVERSITY OF ROCHESTER, published 2018).

Results are given in words; binding and its absence hold for the method and conditions named. Some entries that bind do so weakly or less than the wild type. Tags and fused reporters may be left off the sequences shown.

The target in the experiment is T1, native Gmd of S. aureus (glucosaminidase of autolysin, in growing cultures of UAMS-1 / Xen29) (Staphylococcus aureus) (UniProt A7X0T9).
T1 sequence: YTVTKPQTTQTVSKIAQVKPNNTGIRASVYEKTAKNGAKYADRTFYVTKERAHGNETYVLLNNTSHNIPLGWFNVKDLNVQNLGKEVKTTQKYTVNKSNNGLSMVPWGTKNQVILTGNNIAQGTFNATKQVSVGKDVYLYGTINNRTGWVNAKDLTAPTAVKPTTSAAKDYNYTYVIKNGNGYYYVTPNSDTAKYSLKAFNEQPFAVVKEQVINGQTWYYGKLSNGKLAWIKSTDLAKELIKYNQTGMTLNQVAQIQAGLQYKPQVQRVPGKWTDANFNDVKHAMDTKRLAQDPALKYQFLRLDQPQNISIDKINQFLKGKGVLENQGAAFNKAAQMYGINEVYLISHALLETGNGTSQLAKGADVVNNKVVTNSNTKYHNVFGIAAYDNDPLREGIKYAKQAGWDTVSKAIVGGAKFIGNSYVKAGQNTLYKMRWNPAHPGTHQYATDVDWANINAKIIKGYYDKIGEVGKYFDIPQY
Nature of the experiment: inferred from effects on growing S. aureus cultures.

B1: monoclonal antibody 4A12 (mouse IgG1) (antibody, V domains shown)
VH: QVQLQQPGAELVGPGTSVKLSCKSSGYTFTKYWMHWLKQRPGQGLEWIGVIDPSDSYTNYNQKFKGKATLTVDTSSSTAYLQLSSLTSEDSAVYYCANYYGSYYDVMDFWGQGTSVTVSS
VL: DVQITQSPSYLAASPGETITINCRASKSISKYLAWYQEKPGKTNKLLICFGSTLQSGTPSRFSGSGSGTDFTLTISSLEPEDFATYYCQQHNEYPLTFGAGTKLELKR
On to B1, for which the binding result is “binds”.

B2: human:mouse chimeric 4A12 (h4A12) (antibody, V domains shown)
VH: QVQLQQPGAELVGPGTSVKLSCKSSGYTFTKYWMHWLKQRPGQGLEWIGVIDPSDSYTNYNQKFKGKATLTVDTSSSTAYLQLSSLTSEDSAVYYCANYYGSYYDVMDFWGQGTSVTVSS
VL: DVQITQSPSYLAASPGETITINCRASKSISKYLAWYQEKPGKTNKLLICFGSTLQSGTPSRFSGSGSGTDFTLTISSLEPEDFATYYCQQHNEYPLTFGAGTKLELKR
Take B2: the binding result was “binds”.
